# Active and inactive are the calls of the source.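 How the source made its calls: active means compounds giving half or more protection of infected cells from virus-caused growth loss, again on retest; inactive means the rest.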
# Test system: CEM cells HIV-1 protection, formazan growth assay
# Assay: NCI AIDS Antiviral Assay
# Summary of the method: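 Category rules: moderately active means at least 50% protection on retest, and confirmed active means 100% protection reproducibly. The underlying data came from a formazan growth assay in HIV-1-infected CEM cells.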
SMILES,outcome,EC50 [nM],IC50 (measured here: growth of uninfected CEM cells) [nM]
COc1c(O)cc2c(c1OC)-c1ccc(SC)c(=O)cc1C(NC=O)CC2 (stereo not drawn),inactive,,
CCCCOC(=O)Oc1cc2c(c(OC)c1OC)-c1ccc(SC)c(=O)cc1[C@@H](NC(C)=O)CC2,,> 72400,22.9
